Experimental data taken from patent US20110014246A1 (ACTAVIS GROUP PTC EHF, priority 2008, published 2011).
Counter-ions that a name gives are not always drawn.

Key:
[1] = as disclosed in U.S. Pat. No. 6,268,533; cited from earlier work
[2] = Miglyol dispersant
Text: As used herein, “Particle Size Distribution (P.S.D)” means the cumulative volume size distribution of equivalent spherical diameters as determined by laser diffraction in Malvern Master Sizer 2000 equipment or its equivalent.

SMILES | hygroscopicity [1] | Particle size distribution d(0.1) [2] | Particle size distribution d(0.5) [2] | Particle size distribution d(0.9) [2]
COc1ccc(C[C@@H](C)NC[C@H](O)c2ccc(O)c(NC=O)c2)cc1 [L-(+)-tartrate salt of R,R-formoterol] | non-hygroscopic |  |  | 
COc1ccc(C[C@@H](C)NC[C@H](O)c2ccc(O)c(NC=O)c2)cc1 [amorphous arformoterol L-(+)-tartrate, N-[2-hydroxy-5-[(1R)-1-hydroxy-2-[[(1R)-2-(4-methoxyphenyl)-1-methylethyl]amino]ethyl]phenyl]formamide] |  | 9.78 microns | 31.42 microns | 67.44 microns
